Results on 13 compounds are retold here after the supplement of paper PMC11659162.

± gives the standard deviation of the averaged measurements. The list shows a part of the results. Single values of this set are uncertain.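 The cells are a human neuroglioma line carrying a green fluorescent autophagy reporter.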

Assay [1] deals with H4 GFP-LC3. As to the kind of experiment: cell viability (scaled to control) (fraction of control); higher = more viable cells.
Assay [2] deals with H4 GFP-LC3. Put plainly: ACBP immunofluorescence intensity (scaled to control) (AU (scaled)); higher = more intracellular ACBP/DBI.

For `Nc1nccc2c1ncn2[C@@H]1C[C@H](O)[C@@H](CO)O1` (5 µM), the cell viability in the assay with H4 GFP-LC3 [1] (6 h) came out at 1; in the assay on H4 GFP-LC3 [1] (24 h), 1.1. Also, the figures for the ACBP immunofluorescence intensity in the assay with H4 GFP-LC3 [2] (6 h) and in the assay with H4 GFP-LC3 [2] (24 h) were 0.998 and 0.858, respectively.

With `C[C@@H](C[C@H](N)C(=O)O)C(=O)O` (5 µM), the cell viability in the assay on H4 GFP-LC3 [1] (6 h) is 1.06; with H4 GFP-LC3 [1] (24 h), 1.16. For the same compound, the ACBP immunofluorescence intensity in the assay on H4 GFP-LC3 [2] (6 h) came to 0.964; in the assay with H4 GFP-LC3 [2] (24 h), 0.695.

Turning to `N[C@H](CCC(=O)O)C(=O)O` (5 µM), the cell viability turned out to be 1.07 in the assay with H4 GFP-LC3 [1] (6 h) and 1.14 with H4 GFP-LC3 [1] (24 h). The ACBP immunofluorescence intensity in the assay on H4 GFP-LC3 [2] (6 h) worked out at 0.728; in the assay with H4 GFP-LC3 [2] (24 h), 0.641.

On to `COCCNC(=O)COc1ccc(OCCNC[C@H](O)COc2ccccc2)cc1` (5 µM), for which the cell viability with H4 GFP-LC3 [1] (6 h) worked out at 0.821; with H4 GFP-LC3 [1] (24 h), 0.854. Also, the figures for the ACBP immunofluorescence intensity in the assay on H4 GFP-LC3 [2] (6 h) and in the assay on H4 GFP-LC3 [2] (24 h) were 0.958 and 0.796, respectively.

On to `O=C(O)C=C1CCCc2ccccc2C1O` (configuration not stated) (5 µM), for which the results for the cell viability in the assay on H4 GFP-LC3 [1] (6 h) and in the assay on H4 GFP-LC3 [1] (24 h) were 0.861 and 0.956, respectively. The ACBP immunofluorescence intensity in the assay with H4 GFP-LC3 [2] (6 h) was found to be 0.898; in the assay on H4 GFP-LC3 [2] (24 h) it was 0.41.

For the compound `CC(C)NC[C@@H](O)COc1cccc2ccccc12` (5 µM), the cell viability with H4 GFP-LC3 [1] (6 h) came to 0.708 ± 0.038; with H4 GFP-LC3 [1] (24 h), 0.933 ± 0.021. The ACBP immunofluorescence intensity turned out to be 0.861 ± 0.055 in the assay with H4 GFP-LC3 [2] (6 h) and 0.361 ± 0.047 in the assay with H4 GFP-LC3 [2] (24 h).

As to `O=C(O)COc1ccc(OCCNC[C@H](O)COc2ccccc2)cc1` (5 µM), the cell viability is 0.731 with H4 GFP-LC3 [1] (6 h) and 0.801 with H4 GFP-LC3 [1] (24 h). Besides, the ACBP immunofluorescence intensity with H4 GFP-LC3 [2] (6 h) came out at 0.943; in the assay on H4 GFP-LC3 [2] (24 h) it was 0.882.

On to `CCC(N)(C(=O)O)c1ccc(C(=O)O)cc1` (racemic) (5 µM), for which the cell viability in the assay with H4 GFP-LC3 [1] (6 h) was 1.01; in the assay with H4 GFP-LC3 [1] (24 h) it was 1.3. Moreover, the ACBP immunofluorescence intensity was 0.932 in the assay on H4 GFP-LC3 [2] (6 h) and 0.555 in the assay with H4 GFP-LC3 [2] (24 h).

With `O=C(O)C1=CCCNC1` (5 µM), the values for the cell viability in the assay on H4 GFP-LC3 [1] (6 h) and with H4 GFP-LC3 [1] (24 h) were 0.78 and 1.05, respectively. The ACBP immunofluorescence intensity stood at 0.986 in the assay on H4 GFP-LC3 [2] (6 h) and 0.699 in the assay on H4 GFP-LC3 [2] (24 h).

With `CC(N)(COP(=O)(O)O)C(=O)O` (racemic) (5 µM), the cell viability was determined as 0.875 with H4 GFP-LC3 [1] (6 h) and 0.998 in the assay with H4 GFP-LC3 [1] (24 h). Moreover, the values for the ACBP immunofluorescence intensity in the assay on H4 GFP-LC3 [2] (6 h) and with H4 GFP-LC3 [2] (24 h) were 0.998 and 0.877, respectively.

On to `CC(C(O)c1ccc(O)cc1)N1CCC(Cc2ccccc2)CC1` (configuration not stated) (5 µM), for which the results for the cell viability in the assay on H4 GFP-LC3 [1] (6 h) and in the assay on H4 GFP-LC3 [1] (24 h) were 0.642 and 0.826, respectively. Moreover, the ACBP immunofluorescence intensity came to 0.941 in the assay with H4 GFP-LC3 [2] (6 h) and 0.844 with H4 GFP-LC3 [2] (24 h).

Consider `CN1CCN2c3ccccc3Cc3ccccc3C2C1` (configuration not stated) (5 µM), for which the cell viability came to 0.822 in the assay on H4 GFP-LC3 [1] (6 h) and 1.03 with H4 GFP-LC3 [1] (24 h). Besides, the values for the ACBP immunofluorescence intensity with H4 GFP-LC3 [2] (6 h) and in the assay with H4 GFP-LC3 [2] (24 h) were 0.954 and 0.635, respectively.

With `CNc1cc(NS(=O)(=O)c2ccc(N)cc2)nc(NC)n1` (5 µM), the cell viability with H4 GFP-LC3 [1] (6 h) stood at 0.598; in the assay on H4 GFP-LC3 [1] (24 h), 0.728. Besides, the ACBP immunofluorescence intensity was found to be 0.968 in the assay on H4 GFP-LC3 [2] (6 h) and 0.292 in the assay on H4 GFP-LC3 [2] (24 h).
